Percent effect of library compounds

Data taken from ChEMBL document CHEMBL3988442, “University of Dundee, Small-Polar-MMV Screening Library” (2021).

Each number is a percent effect as filed. The record does not define 0% and 100%; most values in the screen are far below 50% and negative numbers occur (in some assays of this library far below -100). The compounds are a random part of those screened. Two or more numbers in one place are separate tests of the same structure; such repeats can differ widely.

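Cell assay of Leishmania donovani living inside macrophages; the read-out is not stated. Tested at 30 µM. The record gives no direction; compounds that gave an IC50 in retests scored well above the rest, so higher reads as stronger inhibition. Size under these conditions: about 69,000 compounds, about 1,000 of them at 50% or above in at least one test.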

O=C(c1ccccc1F)N1CCN(c2ccc(-n3cccc3)nn2)CC1 read 18.73%. For Cn1ncc(C(=O)N2CCOCC2)c1Cl the result was -30.26%. For CCCc1nnc(N2CCN(c3ccccc3F)CC2)o1 the result was 18.86%. Cc1ccc(C(=O)N2CCN(CCC(C)(C)C)CC2)c(=O)[nH]1 gave 28.99%.

Cc1cccc(CNc2nnc(C(C)C)o2)c1 read 15.7%. CCc1ncc2c(n1)CN(Cc1nnc(CC)o1)CC2 read -46.06%. Result for CO[C@H]1CN(S(=O)(=O)c2ccccc2F)C[C@@]12CCCO2 was 9.599%. With CN(C)c1ccc(-c2cc(C(=O)O)cc(S(=O)(=O)NC3CC3)c2)cc1 the screen gave 44.31%.

For Cc1ccc2c(c1)CN(C(=O)c1cnc(C)cn1)C(CN(C)C)CO2.Cl (centres unmarked) the result was 8.784%. CCc1ccc(CN(C)C(=O)c2ccc(CSc3nnc[nH]3)o2)nc1 read 15.88%. Result for COc1ccc(NC(=O)N2CCN(CCSc3ccccc3)CC2)cc1 was 40.93%. O=C(CCc1ccccc1)N[C@H]1CC[C@@]2(CCC(=O)N2)CC1 read 13.46%.

Result for COC(=O)c1ccc(Cl)c(NS(=O)(=O)c2cnn(C)c2)c1 was 14.39%. COc1cc(OC)cc(C2CCN(CC(=O)NCC(F)(F)F)C2)c1 (centres unmarked) read -3.04%. Result for COCC(=O)N1CC(C(=O)NCC2CC2)C2(CCOCC2)C1 (centres unmarked) was 29.36%. For Cc1nn(C)c2cnn(CCCNS(=O)(=O)Cc3ccccc3)c12 the result was 17.49%.

Result for COc1ccc(-c2nnc(SC(C)C(=O)NCC(C)C)[nH]2)c(OC)c1 (centres unmarked) was 26.23%. For Cc1ccc2c(c1)OCCCC2NCc1nccn1Cc1ccccc1 (centres unmarked) the result was 50.6%. With O=C1Nc2ccccc2CN(CC2CCCC2)C12CCNC2 (centres unmarked) the screen gave 67.89%. For CC(C)CNC(=O)c1c(-n2cnnn2)sc2c1CCCC2 the result was 37.98%.

Result for O=C(COc1ccccc1)N1CCC[C@]2(C[C@@H](OCC3CC3)CO2)C1 was 0.3428% and -52.51%. CC(C)(CN1CCOCC1)CN1CCC(Cc2cccc(CO)c2)C1 (centres unmarked) read 9.532%. With O=C(CC1CCCO1)NCc1ccccc1Cn1cncn1 (centres unmarked) the screen gave -0.8609%. Cc1cccnc1CN1CCN(c2noc(-c3ccccc3)n2)CC1 read 6.399%.

O=C(Nc1ccccc1N1CCOC1=O)N1CCSCC1 read 21.67%. With Cc1ccoc1-c1nnc(CN2CCn3c(nnc3C(C)C)C2)o1 the screen gave 14.96%. With O=C(c1cnc(O)cn1)N(Cc1ccsc1)CC1CCCO1 (centres unmarked) the screen gave -6.854%. Result for CC(=O)c1ccc(CNC(=O)c2c(C)cc(C)cc2C)nc1C was 3.753%.

With COCc1ccccc1C(=O)N1CCN(C2=NCC(C)(C)S2)CC1 the screen gave -1.535%.

Some entries from above, unchanged:

CCc1ncc2c(n1)CN(Cc1nnc(CC)o1)CC2 gave -46.06%.
COCC(=O)N1CC(C(=O)NCC2CC2)C2(CCOCC2)C1 (centres unmarked) gave 29.36%.
CCc1ccc(CN(C)C(=O)c2ccc(CSc3nnc[nH]3)o2)nc1 gave 15.88%.